This note sets out measurements from paper PMC8962559.

Sequences of proteins named here, by UniProt entry; tags and fusion partners are left off.
UniProt Q9BRP0: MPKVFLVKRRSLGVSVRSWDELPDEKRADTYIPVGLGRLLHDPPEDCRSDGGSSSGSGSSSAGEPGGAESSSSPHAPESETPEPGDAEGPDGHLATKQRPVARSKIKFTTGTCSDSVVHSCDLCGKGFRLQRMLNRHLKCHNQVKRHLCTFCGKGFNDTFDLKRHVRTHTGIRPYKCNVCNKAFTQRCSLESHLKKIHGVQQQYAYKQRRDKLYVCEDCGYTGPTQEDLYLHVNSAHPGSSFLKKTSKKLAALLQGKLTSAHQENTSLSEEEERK
UniProt Q04206: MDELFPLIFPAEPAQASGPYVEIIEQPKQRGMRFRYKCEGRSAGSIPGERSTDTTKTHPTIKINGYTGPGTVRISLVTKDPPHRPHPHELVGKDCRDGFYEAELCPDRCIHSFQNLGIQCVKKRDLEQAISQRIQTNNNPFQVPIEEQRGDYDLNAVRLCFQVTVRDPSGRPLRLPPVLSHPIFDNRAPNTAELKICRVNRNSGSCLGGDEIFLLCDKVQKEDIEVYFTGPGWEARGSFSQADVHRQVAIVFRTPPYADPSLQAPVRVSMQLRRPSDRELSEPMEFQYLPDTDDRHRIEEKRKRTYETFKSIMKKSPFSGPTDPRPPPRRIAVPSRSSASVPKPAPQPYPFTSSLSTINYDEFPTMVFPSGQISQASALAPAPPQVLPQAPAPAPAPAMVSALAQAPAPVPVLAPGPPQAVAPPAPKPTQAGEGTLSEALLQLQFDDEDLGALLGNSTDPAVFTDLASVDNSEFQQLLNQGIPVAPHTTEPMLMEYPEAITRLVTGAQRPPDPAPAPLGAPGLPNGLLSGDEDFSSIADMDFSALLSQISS

These are yes or no findings as the source states them, for the method shown. For some of these results: Binding seen in cells or lysates may run through a third protein. Some binding calls cover weakened binding; strength is not graded here.

Experiment [1] deals with GST-tagged full-length OVOL2 (UniProt Q9BRP0). Briefly: pull-down; in vitro pulldown of recombinant proteins: GST-tagged OVOL2 on glutathione-Sepharose beads, His-tagged P65; 4 °C, 3 h; wash 20 mM HEPES pH 7.9, 0.2 mM EDTA, 20% glycerol, 0.15 M KCl, 0.2% NP-40; both purified.
The target in experiment [2] is FLAG-tagged full-length OVOL2 (UniProt Q9BRP0). In words: co-IP; HEK293T cells transfected with FLAG-tagged OVOL2 (full-length or deletion forms) and HA-tagged P65; lysis buffer 20 mM Tris-HCl pH 7.5, 150 mM NaCl, 1 mM EDTA, 1 mM EGTA, 1% Triton X-100; protein A/G beads, 4 °C.
For experiment [3], the target named is endogenous P65 (human (endogenous in NCC-827 and SK-MES-1)) (UniProt Q04206). In words: co-IP; endogenous P300 and P65 in SK-MES-1 cells with or without OVOL2 overexpression.
Experiment [4] addresses endogenous OVOL2 (human (endogenous in NCC-827)) (UniProt Q9BRP0). Briefly: co-IP; endogenous proteins, nuclear extracts from NCC-827 cells, immunoprecipitation with an anti-OVOL2 antibody.

With “His-tagged P65 (from UniProt Q04206 1-551)”, in experiment [1], the binding result is listed as “binds”.
“HA-tagged P65 (from UniProt Q04206 1-551)”: the binding entry in experiment [2] is on record as “binds”.
For “OVOL2 overexpressed in SK-MES-1 cells (from UniProt Q9BRP0 1-275)”, the binding entry in experiment [3] is “binds”.
For “endogenous P65 (from UniProt Q04206 1-551)”, the binding entry in experiment [4] was “binds”.
